This test deals with T1, glycosyltransferase B3GNT3, overexpressed (B3GNT3^OE) (UniProt Q9Y2A9).
T1 sequence: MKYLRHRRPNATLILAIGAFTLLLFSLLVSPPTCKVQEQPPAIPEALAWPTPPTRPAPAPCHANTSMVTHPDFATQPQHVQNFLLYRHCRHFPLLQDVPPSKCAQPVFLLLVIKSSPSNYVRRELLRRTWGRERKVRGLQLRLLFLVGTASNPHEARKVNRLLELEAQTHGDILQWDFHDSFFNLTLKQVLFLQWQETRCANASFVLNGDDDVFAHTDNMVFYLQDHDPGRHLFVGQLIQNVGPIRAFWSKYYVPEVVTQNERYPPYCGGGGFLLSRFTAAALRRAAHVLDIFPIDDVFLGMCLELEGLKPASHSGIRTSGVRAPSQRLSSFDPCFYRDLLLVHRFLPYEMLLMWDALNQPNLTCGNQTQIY
In words: affinity purification with mass spectrometry; IP-LC-MS/MS from B3GNT3^OE PANC-1 cells.

These are yes or no findings as the source states them, for the method shown. Binding seen in cells or lysates may run through a third protein. A yes stands for co-enrichment or nearness to the bait. Other partners may have been found.

For “4F2hc (heavy chain subunit of system Xc-, encoded by the SLC3A2 gene), endogenous (from UniProt P08195-1 1-630)”, the binding result is “binds”.

The record behind these values is publication PMC10406883.
